Some of the results follow.

Sequences of proteins named here, by UniProt entry; tags and fusion partners are left off. A change or cut given only in a name is not applied to a line headed by its entry.
UniProt Q13351: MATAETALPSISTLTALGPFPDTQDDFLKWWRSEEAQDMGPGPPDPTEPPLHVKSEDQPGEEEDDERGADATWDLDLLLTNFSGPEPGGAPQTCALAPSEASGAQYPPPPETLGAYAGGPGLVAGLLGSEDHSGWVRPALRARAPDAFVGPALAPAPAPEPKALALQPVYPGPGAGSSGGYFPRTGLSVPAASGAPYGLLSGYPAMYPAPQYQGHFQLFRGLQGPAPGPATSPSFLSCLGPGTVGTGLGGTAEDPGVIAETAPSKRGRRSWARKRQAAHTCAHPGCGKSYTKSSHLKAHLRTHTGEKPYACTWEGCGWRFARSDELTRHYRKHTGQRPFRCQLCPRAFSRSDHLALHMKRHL
UniProt O15066: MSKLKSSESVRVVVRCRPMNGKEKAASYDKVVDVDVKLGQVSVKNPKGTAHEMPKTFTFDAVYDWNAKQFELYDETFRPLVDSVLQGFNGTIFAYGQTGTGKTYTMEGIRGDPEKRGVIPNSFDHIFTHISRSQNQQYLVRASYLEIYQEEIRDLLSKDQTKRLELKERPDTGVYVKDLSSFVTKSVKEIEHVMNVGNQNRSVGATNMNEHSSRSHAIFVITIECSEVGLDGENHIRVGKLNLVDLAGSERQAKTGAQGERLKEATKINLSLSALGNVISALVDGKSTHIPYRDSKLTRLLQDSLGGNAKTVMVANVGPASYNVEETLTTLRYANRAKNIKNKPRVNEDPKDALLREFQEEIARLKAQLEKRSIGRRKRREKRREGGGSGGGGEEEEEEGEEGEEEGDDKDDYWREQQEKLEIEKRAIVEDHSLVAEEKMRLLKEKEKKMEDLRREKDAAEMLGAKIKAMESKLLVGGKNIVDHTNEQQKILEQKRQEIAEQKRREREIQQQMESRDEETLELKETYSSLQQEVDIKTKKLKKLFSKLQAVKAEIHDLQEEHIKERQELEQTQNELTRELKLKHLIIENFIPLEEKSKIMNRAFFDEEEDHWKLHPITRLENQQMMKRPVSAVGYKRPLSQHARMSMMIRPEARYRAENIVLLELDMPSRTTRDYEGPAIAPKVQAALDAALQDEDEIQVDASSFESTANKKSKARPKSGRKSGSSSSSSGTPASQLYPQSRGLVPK
UniProt O95239: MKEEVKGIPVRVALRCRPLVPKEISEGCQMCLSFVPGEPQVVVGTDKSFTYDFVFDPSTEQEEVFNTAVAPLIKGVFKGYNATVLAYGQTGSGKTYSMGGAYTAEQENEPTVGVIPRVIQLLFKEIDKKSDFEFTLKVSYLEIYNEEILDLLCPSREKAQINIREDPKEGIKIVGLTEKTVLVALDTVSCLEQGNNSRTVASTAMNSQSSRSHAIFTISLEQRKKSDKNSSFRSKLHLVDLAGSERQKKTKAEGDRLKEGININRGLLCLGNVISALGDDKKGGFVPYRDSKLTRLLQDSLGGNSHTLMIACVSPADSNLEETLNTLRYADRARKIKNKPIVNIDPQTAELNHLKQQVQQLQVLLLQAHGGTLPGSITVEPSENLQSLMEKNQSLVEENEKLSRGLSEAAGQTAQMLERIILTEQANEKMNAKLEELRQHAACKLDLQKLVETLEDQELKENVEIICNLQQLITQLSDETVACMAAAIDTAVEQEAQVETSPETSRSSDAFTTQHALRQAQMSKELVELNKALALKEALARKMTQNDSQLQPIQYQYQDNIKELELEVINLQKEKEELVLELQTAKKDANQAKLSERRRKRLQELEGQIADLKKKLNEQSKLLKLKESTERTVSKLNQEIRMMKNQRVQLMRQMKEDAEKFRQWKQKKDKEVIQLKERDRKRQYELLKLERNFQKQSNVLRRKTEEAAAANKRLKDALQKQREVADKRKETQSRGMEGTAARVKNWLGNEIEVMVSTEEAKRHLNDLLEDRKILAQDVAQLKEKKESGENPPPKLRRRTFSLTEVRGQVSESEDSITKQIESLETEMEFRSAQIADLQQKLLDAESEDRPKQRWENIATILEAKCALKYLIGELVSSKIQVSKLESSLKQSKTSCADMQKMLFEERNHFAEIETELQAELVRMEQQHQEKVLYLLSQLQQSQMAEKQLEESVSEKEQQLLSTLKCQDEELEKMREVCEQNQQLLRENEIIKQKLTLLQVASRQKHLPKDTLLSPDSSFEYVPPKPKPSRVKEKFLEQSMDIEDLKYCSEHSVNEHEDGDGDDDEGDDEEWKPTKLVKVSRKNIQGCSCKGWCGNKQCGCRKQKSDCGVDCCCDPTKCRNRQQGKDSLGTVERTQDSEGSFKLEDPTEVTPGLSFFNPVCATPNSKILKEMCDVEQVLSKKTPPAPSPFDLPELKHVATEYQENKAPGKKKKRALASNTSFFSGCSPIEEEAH
UniProt P24390: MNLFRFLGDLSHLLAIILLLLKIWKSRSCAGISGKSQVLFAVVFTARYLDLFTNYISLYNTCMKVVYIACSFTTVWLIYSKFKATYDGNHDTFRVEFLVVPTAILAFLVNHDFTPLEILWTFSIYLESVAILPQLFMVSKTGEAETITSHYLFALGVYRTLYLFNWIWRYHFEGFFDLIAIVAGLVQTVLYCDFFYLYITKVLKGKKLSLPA
UniProt Q8NC54: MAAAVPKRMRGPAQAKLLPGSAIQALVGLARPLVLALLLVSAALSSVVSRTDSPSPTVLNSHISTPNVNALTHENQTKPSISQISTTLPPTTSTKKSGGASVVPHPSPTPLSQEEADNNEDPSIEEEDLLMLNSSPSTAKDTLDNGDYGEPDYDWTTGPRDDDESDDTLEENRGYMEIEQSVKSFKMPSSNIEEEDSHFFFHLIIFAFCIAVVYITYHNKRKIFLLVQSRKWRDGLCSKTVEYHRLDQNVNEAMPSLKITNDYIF
UniProt Q7Z4S6: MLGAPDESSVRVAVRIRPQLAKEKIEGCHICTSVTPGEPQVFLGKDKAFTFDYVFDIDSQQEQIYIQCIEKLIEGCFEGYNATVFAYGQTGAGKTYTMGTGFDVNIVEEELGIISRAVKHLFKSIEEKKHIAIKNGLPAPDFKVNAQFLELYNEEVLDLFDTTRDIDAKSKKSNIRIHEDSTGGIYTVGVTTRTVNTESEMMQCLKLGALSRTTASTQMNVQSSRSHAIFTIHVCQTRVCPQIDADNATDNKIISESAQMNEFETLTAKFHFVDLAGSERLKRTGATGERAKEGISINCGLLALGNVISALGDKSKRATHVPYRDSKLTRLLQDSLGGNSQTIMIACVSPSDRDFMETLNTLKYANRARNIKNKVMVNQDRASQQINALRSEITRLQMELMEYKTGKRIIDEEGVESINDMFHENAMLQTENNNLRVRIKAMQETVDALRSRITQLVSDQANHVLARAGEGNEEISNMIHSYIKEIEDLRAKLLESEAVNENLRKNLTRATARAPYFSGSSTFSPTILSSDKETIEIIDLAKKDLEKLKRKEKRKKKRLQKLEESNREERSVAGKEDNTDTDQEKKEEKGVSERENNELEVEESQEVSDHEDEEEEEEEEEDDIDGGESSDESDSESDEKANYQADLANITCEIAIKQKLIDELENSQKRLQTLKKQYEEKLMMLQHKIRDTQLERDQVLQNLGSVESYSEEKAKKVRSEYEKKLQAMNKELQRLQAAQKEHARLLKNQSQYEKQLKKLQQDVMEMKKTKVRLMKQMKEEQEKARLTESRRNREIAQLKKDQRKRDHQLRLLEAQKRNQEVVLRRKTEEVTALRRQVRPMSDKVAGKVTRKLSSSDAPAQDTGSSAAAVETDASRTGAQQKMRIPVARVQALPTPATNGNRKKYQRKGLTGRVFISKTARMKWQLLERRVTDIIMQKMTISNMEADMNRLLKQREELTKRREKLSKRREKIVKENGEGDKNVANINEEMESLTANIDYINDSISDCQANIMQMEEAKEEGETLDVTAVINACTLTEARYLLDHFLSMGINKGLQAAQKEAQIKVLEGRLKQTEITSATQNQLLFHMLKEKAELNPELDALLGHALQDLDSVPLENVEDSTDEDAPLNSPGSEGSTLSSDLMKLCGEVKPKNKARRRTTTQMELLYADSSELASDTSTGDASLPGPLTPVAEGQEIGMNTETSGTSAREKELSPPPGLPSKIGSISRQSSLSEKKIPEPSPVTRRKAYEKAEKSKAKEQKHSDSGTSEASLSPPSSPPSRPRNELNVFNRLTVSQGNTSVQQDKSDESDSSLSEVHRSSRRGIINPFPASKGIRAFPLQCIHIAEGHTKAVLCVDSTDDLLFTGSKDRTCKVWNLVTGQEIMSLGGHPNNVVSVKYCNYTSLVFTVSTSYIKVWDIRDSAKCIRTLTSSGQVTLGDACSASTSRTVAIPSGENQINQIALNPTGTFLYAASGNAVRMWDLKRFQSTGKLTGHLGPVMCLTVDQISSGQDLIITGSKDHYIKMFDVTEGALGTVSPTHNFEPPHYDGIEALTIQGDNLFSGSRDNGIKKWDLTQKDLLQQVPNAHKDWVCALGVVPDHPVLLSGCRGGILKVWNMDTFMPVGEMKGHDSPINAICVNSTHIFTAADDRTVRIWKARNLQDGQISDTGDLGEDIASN
UniProt Q5JYT7: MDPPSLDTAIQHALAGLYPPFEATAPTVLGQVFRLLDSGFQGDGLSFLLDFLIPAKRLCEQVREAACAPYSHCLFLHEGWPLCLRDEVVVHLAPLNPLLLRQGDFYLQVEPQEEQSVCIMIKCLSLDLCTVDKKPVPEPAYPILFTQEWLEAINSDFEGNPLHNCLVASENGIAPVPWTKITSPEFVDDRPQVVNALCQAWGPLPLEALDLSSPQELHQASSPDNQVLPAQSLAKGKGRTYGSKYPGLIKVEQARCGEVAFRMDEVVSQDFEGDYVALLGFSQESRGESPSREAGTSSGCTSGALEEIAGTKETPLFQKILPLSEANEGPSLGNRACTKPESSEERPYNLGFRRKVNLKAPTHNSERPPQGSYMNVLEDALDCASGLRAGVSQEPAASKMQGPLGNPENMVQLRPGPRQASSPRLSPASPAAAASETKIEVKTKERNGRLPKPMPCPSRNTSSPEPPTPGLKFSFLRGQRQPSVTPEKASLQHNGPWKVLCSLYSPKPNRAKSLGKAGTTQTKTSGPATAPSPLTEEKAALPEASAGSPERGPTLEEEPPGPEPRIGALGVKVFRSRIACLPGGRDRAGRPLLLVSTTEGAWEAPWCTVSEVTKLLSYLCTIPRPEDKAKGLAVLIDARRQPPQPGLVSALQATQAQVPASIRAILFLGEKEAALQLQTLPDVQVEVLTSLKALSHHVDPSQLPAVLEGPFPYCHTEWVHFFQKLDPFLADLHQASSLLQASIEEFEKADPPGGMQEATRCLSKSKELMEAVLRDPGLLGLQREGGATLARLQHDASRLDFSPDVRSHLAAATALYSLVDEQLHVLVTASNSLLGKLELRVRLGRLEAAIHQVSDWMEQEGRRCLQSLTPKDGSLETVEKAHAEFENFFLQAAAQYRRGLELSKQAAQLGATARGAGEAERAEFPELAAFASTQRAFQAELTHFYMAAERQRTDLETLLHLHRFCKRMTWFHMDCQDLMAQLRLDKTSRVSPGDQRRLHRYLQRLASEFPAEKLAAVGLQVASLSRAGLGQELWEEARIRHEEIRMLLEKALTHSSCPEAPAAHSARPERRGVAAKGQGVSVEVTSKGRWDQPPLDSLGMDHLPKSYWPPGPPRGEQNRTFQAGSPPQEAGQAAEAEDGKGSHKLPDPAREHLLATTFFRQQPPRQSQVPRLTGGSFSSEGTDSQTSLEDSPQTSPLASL
UniProt O94889: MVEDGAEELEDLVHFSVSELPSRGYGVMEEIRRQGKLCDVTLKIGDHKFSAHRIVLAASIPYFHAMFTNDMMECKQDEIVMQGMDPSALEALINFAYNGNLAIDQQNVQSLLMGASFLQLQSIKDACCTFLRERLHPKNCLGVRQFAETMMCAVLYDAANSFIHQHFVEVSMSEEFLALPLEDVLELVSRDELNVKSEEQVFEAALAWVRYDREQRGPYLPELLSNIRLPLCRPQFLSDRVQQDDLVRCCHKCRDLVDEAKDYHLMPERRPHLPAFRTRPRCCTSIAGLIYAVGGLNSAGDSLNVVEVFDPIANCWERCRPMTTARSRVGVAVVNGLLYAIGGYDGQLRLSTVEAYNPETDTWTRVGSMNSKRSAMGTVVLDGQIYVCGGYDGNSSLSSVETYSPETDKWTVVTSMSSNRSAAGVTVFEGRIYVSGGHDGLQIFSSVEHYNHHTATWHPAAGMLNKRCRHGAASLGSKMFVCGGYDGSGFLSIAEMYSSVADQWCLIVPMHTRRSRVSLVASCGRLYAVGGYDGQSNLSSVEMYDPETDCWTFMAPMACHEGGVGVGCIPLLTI
UniProt Q96S16: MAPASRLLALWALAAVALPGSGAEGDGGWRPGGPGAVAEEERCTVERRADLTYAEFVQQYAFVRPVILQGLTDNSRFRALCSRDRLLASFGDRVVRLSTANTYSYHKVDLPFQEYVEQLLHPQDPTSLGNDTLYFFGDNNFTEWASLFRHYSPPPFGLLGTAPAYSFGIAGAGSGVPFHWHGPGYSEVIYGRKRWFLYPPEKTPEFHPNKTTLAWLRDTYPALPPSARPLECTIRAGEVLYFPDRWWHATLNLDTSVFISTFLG

Compound in one assay: COC(=O)N[C@@H](C)CNc1nccc(-c2cn(C(C)C)nc2-c2cc(Cl)cc(NS(C)(=O)=O)c2F)n1 [encorafenib]
The experiment in a line: log2 fold change, soluble protein after heating vs DMSO (PISA); higher = thermal stabilisation; K562 cells, 10 uM, 30 min; active = over 0.2 and 3.5 SD of the protein, either way, in both replicates (recomputed). In a few lines:
(§1)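 K562 cells at 2×10^6 cells/mL were given 10 μM compound for 30 min. Aliquots then went through 3 min of heating across 48°C-58°C, were pooled, and were extracted in PBS with 0.5% NP-40 at 4°C, and the supernatant after 21,000xg for 90 min was quantified by TMTpro 16plex LC-MS/MS with channel sums equalised. Thermal stability relative to control samples, from duplicates, is given as log2 fold change.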
KRAS isoform 2 (UniProt P01116): the log2 fold change was inactive: 0.043.
As to KPNB1 (UniProt Q14974), the log2 fold change was inactive: 0.201.
Still for that read-out and setting: with KPNA4 (UniProt O00629) the figure was inactive: 0.016; with KLF1 (UniProt Q13351), inactive: 0.013; with KIF3B (UniProt O15066), inactive: 0.034.
On the same count and under the same terms, the value for KDM5D isoform 3 (UniProt Q9BY66) was inactive: 0.198.
Same read-out and setting: with KMT2C isoform 3 (UniProt Q8NEZ4) the figure was inactive: -0.012; with KNOP1 (UniProt Q1ED39), inactive: -0.108.
For JMJD6 isoform 3 (UniProt Q6NYC1), the log2 fold change is inactive: 0.026.
Still for that read-out and setting: with JMJD7 (UniProt P0C870) the figure was inactive: 0.002; with KIF11 (UniProt P52732), inactive: 0.174.
The same measure, in the same setting: the value for KIF4A (UniProt O95239) was inactive: 0.217.
KIAA1324L (UniProt A8MWY0): the log2 fold change was inactive: 0.015.
In the case of KPTN (UniProt Q9Y664), the log2 fold change was inactive: -0.025.
For the target KCTD10 (UniProt Q9H3F6), the log2 fold change is inactive: 0.015.
Turning to KLC2 (UniProt Q9H0B6), the log2 fold change was inactive: 0.036.
With KDM3B (UniProt Q7LBC6), the log2 fold change is inactive: 0.054.
As for KNTC1 (UniProt P50748), the log2 fold change is inactive: 0.077.
As for KDELR1 (UniProt P24390), the log2 fold change is inactive: -0.022.
Still for that read-out and setting: the value for KCT2 (UniProt Q8NC54) was inactive: 0.063.
In the case of KIF21A isoform 4 (UniProt Q7Z4S6), the log2 fold change was inactive: 0.175.
Consider KDM1A isoform 2 (UniProt O60341), for which the log2 fold change was inactive: 0.052.
Consider KDM1B (UniProt Q8NB78), for which the log2 fold change was inactive: -0.055.
With KIAA1755 (UniProt Q5JYT7), the log2 fold change is inactive: -0.013.
On the same count and under the same terms, the value for KCNK5 (UniProt O95279) was inactive: 0.017; that for KLHL18 (UniProt O94889) was inactive: 0.019; that for KIFBP (UniProt Q96EK5) was inactive: 0.049.

Compound in a further assay: COC(=O)[C@H](CCSC)NC(=O)C1=C(C=C(C=C1)NC[C@H](CS)N)C2=CC=CC=C2
The description is as above. In a few lines: as §1
Take KRAS isoform 2 (UniProt P01116): the log2 fold change is inactive: 0.02.
Still for that read-out and setting: the value for KPNB1 (UniProt Q14974) was inactive: -0.063; that for KPNA4 (UniProt O00629) was inactive: 0.015.
Still for that read-out and setting: with KCNH2 (UniProt Q12809) the figure was inactive: 0.088; with KLF1 (UniProt Q13351), inactive: -0.002.
Consider KIF3B (UniProt O15066), for which the log2 fold change is inactive: -0.043.
As for KDM5D isoform 3 (UniProt Q9BY66), the log2 fold change is inactive: -0.05.
The same measure, in the same setting: the value for KIDINS220 isoform 2 (UniProt Q9ULH0) was inactive: -0.105; that for KMT2C isoform 3 (UniProt Q8NEZ4) was inactive: 0.035; that for JMJD8 (UniProt Q96S16) was inactive: -0.02.
Consider KNOP1 (UniProt Q1ED39), for which the log2 fold change was inactive: 0.052.
Consider JMJD6 isoform 3 (UniProt Q6NYC1), for which the log2 fold change is inactive: 0.035.
On the same count and under the same terms, with KIF11 (UniProt P52732) the figure was inactive: -0.055.
With KIF4A (UniProt O95239), the log2 fold change was inactive: 0.106.
JAK3 (UniProt P52333): the log2 fold change was inactive: -0.056.
As for KIAA1324L (UniProt A8MWY0), the log2 fold change was inactive: 0.006.
Same read-out and setting: the value for KPTN (UniProt Q9Y664) was inactive: -0.094; that for KCTD10 (UniProt Q9H3F6) was inactive: -0.07; that for KLC2 (UniProt Q9H0B6) was inactive: -0.051.
Still for that read-out and setting: with KDM3B (UniProt Q7LBC6) the figure was inactive: -0.029.
Still for that read-out and setting: the value for KNTC1 (UniProt P50748) was inactive: -0.041; that for KCT2 (UniProt Q8NC54) was inactive: -0.036; that for KIF21A isoform 4 (UniProt Q7Z4S6) was inactive: -0.072.
As for KDM1A isoform 2 (UniProt O60341), the log2 fold change was inactive: -0.032.
Regarding KIAA1755 (UniProt Q5JYT7), the log2 fold change was inactive: -0.087.
With KLHL18 (UniProt O94889), the log2 fold change is inactive: -0.05.
Still for that read-out and setting: the value for KIFBP (UniProt Q96EK5) was inactive: -0.134.

(Values after the supplement of paper PMC10849652.)
